Assay results: paper PMC8192522
Where two headings read alike, the source gives them in different places. Results are given in words; binding and its absence hold for the method and conditions named. Binding seen in cells or lysates may run through a third protein. Some binding calls cover weakened binding; strength is not graded here. For some assays here: Where a sequence is shown, tags or fusion partners need not be part of it. Values belong to the molecule of their own block, whether it stands above or below them.

The chains behind the UniProt entries cited, without tags or fusion partners. Where a name states a change or a piece, a line headed by the entry shows the natural chain unless it says otherwise.
UniProt P34931: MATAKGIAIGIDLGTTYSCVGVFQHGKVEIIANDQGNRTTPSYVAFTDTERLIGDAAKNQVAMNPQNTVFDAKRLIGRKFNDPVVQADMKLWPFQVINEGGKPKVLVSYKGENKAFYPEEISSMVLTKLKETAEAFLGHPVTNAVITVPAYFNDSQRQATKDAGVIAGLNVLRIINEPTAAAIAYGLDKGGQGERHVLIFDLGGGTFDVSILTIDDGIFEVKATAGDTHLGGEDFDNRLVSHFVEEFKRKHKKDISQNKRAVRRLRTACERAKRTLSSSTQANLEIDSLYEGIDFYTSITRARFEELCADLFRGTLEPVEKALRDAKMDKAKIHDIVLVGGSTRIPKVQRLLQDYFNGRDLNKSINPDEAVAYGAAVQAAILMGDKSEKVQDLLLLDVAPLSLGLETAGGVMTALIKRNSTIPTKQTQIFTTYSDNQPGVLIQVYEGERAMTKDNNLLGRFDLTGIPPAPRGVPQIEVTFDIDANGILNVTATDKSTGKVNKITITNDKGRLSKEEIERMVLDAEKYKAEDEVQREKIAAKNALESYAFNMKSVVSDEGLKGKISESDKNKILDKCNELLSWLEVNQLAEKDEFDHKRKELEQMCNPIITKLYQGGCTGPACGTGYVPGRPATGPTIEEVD
UniProt Q04206: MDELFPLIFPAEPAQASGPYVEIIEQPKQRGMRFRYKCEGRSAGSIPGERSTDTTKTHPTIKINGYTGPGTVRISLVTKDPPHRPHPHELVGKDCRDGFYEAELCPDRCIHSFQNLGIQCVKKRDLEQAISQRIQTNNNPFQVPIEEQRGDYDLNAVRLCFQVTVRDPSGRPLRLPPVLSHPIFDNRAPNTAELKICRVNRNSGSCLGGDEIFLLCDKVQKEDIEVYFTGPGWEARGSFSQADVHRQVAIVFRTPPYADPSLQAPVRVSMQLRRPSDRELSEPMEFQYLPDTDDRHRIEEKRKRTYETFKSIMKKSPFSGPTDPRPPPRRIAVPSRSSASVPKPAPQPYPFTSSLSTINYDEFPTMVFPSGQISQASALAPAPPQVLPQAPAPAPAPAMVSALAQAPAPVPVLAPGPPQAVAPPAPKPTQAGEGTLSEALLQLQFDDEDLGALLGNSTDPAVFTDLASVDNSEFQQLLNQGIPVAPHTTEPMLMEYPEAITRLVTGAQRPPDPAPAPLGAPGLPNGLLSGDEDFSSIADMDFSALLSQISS
UniProt Q9Y6K9: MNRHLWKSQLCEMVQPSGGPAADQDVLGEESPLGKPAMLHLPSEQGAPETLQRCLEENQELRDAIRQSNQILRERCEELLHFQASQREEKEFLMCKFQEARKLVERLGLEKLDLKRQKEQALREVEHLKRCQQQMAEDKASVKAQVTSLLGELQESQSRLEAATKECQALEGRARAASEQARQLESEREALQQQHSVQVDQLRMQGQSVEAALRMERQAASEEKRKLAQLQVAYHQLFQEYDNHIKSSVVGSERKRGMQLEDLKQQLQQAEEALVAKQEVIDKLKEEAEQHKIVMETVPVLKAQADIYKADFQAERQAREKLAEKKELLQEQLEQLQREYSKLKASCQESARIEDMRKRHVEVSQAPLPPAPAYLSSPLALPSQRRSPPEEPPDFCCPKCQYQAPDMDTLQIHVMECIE

What was measured:
[1] = target: T1, endogenous FKBP4 (human (endogenous in H1975 and BEAS-2B)) (UniProt Q02790); experiment: co-IP; endogenous proteins in H1975 and BEAS-2B cells, endogenous FKBP4 with its partners; lysis buffer 50 mM Tris-HCl pH 7.5, 150 mM NaCl, 1% Triton X-100, 0.1% Na-deoxycholate, 1 mM EDTA, 1 mM DTT
T1 sequence: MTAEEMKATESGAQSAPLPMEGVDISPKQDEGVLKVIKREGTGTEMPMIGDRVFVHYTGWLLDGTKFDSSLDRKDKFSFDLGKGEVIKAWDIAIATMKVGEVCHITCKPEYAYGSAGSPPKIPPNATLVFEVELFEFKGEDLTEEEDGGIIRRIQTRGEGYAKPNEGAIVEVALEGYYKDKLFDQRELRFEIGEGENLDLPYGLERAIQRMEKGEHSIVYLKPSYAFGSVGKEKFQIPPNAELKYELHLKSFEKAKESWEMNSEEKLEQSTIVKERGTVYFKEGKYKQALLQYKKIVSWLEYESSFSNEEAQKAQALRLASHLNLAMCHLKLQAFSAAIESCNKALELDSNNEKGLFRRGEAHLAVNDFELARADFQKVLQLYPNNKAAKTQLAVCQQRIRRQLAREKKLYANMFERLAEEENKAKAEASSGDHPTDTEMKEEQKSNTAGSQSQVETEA

[2] = target: T2, GST-tagged FKBP4 (GST-FKBP4) (human) (UniProt Q02790); experiment: pull-down; GST-FKBP4 from bacterial lysate held on glutathione agarose (Pierce GST Protein Interaction Pull-Down Kit), 4 °C, eluted with 10 mM glutathione; source of the HA-tagged prey not stated
T2 sequence: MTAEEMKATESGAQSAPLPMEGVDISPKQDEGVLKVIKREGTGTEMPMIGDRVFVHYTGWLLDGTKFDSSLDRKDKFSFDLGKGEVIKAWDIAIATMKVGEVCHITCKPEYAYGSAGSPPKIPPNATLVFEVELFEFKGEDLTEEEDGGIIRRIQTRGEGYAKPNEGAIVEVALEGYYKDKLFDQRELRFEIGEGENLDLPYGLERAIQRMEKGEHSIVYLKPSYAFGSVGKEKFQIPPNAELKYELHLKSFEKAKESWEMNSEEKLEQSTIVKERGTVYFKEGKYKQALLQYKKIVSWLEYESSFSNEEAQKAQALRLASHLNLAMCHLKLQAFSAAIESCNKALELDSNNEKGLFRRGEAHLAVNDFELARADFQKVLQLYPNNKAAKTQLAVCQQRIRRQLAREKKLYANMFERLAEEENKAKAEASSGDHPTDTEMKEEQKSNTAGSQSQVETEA

[3] = target: T3, Flag-tagged FKBP4-deleted PPIase domains (Flag-FKBP4ΔPPIase; 17-253 AA-truncated mutant) (human) (UniProt Q02790); experiment: co-IP; 293T cells transfected with Flag-FKBP4 wild type, ΔPPIase, ΔTPR or K354A; Hsp90 and IKK detected
T3 sequence: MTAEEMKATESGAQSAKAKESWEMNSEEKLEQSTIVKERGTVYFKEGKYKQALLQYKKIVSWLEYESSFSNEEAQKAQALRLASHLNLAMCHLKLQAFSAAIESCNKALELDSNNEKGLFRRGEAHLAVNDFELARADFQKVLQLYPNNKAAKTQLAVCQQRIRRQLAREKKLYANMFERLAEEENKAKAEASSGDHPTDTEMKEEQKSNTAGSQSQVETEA

[4] = target: T4, Flag-tagged FKBP4 full-length (Flag-FKBP4-WT) (human) (UniProt Q02790); experiment: as above
T4 sequence: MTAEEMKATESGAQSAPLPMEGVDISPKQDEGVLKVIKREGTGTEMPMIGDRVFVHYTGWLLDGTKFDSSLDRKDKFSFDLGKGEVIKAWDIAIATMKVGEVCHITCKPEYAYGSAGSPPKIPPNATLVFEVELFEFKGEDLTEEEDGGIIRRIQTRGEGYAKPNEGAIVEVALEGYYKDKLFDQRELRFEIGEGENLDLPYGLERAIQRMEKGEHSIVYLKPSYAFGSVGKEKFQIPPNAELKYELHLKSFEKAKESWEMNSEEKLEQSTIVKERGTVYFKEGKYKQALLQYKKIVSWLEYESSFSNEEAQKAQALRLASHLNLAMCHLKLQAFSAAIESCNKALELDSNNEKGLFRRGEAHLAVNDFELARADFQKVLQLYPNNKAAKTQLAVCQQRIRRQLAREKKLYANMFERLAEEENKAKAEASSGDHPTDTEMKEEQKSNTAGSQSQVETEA

[5] = target: T4, Flag-tagged FKBP4 full-length (Flag-FKBP4-WT) (human); experiment: co-IP; 293T cells co-transfected with Flag-FKBP4 and HA-IKKα, HA-IKKβ, HA-IKKγ or HA-Hsp90; lysis buffer 50 mM Tris-HCl pH 7.5, 150 mM NaCl, 1% Triton X-100, 0.1% Na-deoxycholate, 1 mM EDTA, 1 mM DTT
[6] = target: T2, GST-tagged FKBP4 (GST-FKBP4) (human); experiment: pull-down; GST-FKBP4 from bacterial lysate held on glutathione agarose (Pierce GST Protein Interaction Pull-Down Kit), 4 °C, eluted with 10 mM glutathione; source of the HA-tagged prey not stated; remark: listed apart in the source
[7] = target: T1, endogenous FKBP4 (human (endogenous in H1975 and BEAS-2B)); experiment: co-IP; endogenous proteins in H1975 and BEAS-2B cells, endogenous FKBP4 with its partners; lysis buffer 50 mM Tris-HCl pH 7.5, 150 mM NaCl, 1% Triton X-100, 0.1% Na-deoxycholate, 1 mM EDTA, 1 mM DTT; remark: listed apart in the source

binding [2]: binds
Molecule: Hsp70 (in the GST pull-down with GST-FKBP4) (from UniProt P34931 1-641)

binding [1]: binds
Molecule: endogenous Hsp70 (HSPA1L) (from UniProt P34931 1-641)

binding [2]: binds
Molecule: HA-RelA (from UniProt Q04206 1-551)

binding [7]: binds
B2: endogenous IKKβ (protein, UniProt O14920 1-756)
chain: MSWSPSLTTQTCGAWEMKERLGTGGFGNVIRWHNQETGEQIAIKQCRQELSPRNRERWCLEIQIMRRLTHPNVVAARDVPEGMQNLAPNDLPLLAMEYCQGGDLRKYLNQFENCCGLREGAILTLLSDIASALRYLHENRIIHRDLKPENIVLQQGEQRLIHKIIDLGYAKELDQGSLCTSFVGTLQYLAPELLEQQKYTVTVDYWSFGTLAFECITGFRPFLPNWQPVQWHSKVRQKSEVDIVVSEDLNGTVKFSSSLPYPNNLNSVLAERLEKWLQLMLMWHPRQRGTDPTYGPNGCFKALDDILNLKLVHILNMVTGTIHTYPVTEDESLQSLKARIQQDTGIPEEDQELLQEAGLALIPDKPATQCISDGKLNEGHTLDMDLVFLFDNSKITYETQISPRPQPESVSCILQEPKRNLAFFQLRKVWGQVWHSIQTLKEDCNRLQQGQRAAMMNLLRNNSCLSKMKNSMASMSQQLKAKLDFFKTSIQIDLEKYSEQTEFGITSDKLLLAWREMEQAVELCGRENEVKLLVERMMALQTDIVDLQRSPMGRKQGGTLDDLEEQARELYRRLREKPRDQRTEGDSQEMVRLLLQAIQSFEKKVRVIYTQLSKTVVCKQKALELLPKVEEVVSLMNEDEKTVVRLQEKRQKELWNLLKIACSKVRGPVSGSPDSMNASRLSQPGQLMSQPSTASNSLPEPAKKSEELVAEAHNLCTLLENAIQDTVREQDQSFTALDWSWLQTEEEEHSCLEQAS

Further lines, the molecule ahead of its results:

Molecule: endogenous RelA (from UniProt Q04206 1-551)
binding [1]: binds

Molecule: IKKγ (co-IP with Flag-FKBP4 wild type and mutants in 293T cells, Fig. 4I) (from UniProt Q9Y6K9 1-419)
binding [3]: binds
binding [4]: binds

Molecule: hemagglutinin (HA)-tagged IKKγ (from UniProt Q9Y6K9 1-419)
binding [2]: binds
binding [5]: binds

B1: hemagglutinin (HA)-tagged IKKβ (protein, UniProt O14920 1-756)
chain: MSWSPSLTTQTCGAWEMKERLGTGGFGNVIRWHNQETGEQIAIKQCRQELSPRNRERWCLEIQIMRRLTHPNVVAARDVPEGMQNLAPNDLPLLAMEYCQGGDLRKYLNQFENCCGLREGAILTLLSDIASALRYLHENRIIHRDLKPENIVLQQGEQRLIHKIIDLGYAKELDQGSLCTSFVGTLQYLAPELLEQQKYTVTVDYWSFGTLAFECITGFRPFLPNWQPVQWHSKVRQKSEVDIVVSEDLNGTVKFSSSLPYPNNLNSVLAERLEKWLQLMLMWHPRQRGTDPTYGPNGCFKALDDILNLKLVHILNMVTGTIHTYPVTEDESLQSLKARIQQDTGIPEEDQELLQEAGLALIPDKPATQCISDGKLNEGHTLDMDLVFLFDNSKITYETQISPRPQPESVSCILQEPKRNLAFFQLRKVWGQVWHSIQTLKEDCNRLQQGQRAAMMNLLRNNSCLSKMKNSMASMSQQLKAKLDFFKTSIQIDLEKYSEQTEFGITSDKLLLAWREMEQAVELCGRENEVKLLVERMMALQTDIVDLQRSPMGRKQGGTLDDLEEQARELYRRLREKPRDQRTEGDSQEMVRLLLQAIQSFEKKVRVIYTQLSKTVVCKQKALELLPKVEEVVSLMNEDEKTVVRLQEKRQKELWNLLKIACSKVRGPVSGSPDSMNASRLSQPGQLMSQPSTASNSLPEPAKKSEELVAEAHNLCTLLENAIQDTVREQDQSFTALDWSWLQTEEEEHSCLEQAS
binding [5]: binds
binding [6]: binds
